Experimental findings from PMC10316081 are described below.

The chains behind the UniProt entries cited, without tags or fusion partners. Where a name states a change or a piece, a line headed by the entry shows the natural chain unless it says otherwise.
UniProt O75140: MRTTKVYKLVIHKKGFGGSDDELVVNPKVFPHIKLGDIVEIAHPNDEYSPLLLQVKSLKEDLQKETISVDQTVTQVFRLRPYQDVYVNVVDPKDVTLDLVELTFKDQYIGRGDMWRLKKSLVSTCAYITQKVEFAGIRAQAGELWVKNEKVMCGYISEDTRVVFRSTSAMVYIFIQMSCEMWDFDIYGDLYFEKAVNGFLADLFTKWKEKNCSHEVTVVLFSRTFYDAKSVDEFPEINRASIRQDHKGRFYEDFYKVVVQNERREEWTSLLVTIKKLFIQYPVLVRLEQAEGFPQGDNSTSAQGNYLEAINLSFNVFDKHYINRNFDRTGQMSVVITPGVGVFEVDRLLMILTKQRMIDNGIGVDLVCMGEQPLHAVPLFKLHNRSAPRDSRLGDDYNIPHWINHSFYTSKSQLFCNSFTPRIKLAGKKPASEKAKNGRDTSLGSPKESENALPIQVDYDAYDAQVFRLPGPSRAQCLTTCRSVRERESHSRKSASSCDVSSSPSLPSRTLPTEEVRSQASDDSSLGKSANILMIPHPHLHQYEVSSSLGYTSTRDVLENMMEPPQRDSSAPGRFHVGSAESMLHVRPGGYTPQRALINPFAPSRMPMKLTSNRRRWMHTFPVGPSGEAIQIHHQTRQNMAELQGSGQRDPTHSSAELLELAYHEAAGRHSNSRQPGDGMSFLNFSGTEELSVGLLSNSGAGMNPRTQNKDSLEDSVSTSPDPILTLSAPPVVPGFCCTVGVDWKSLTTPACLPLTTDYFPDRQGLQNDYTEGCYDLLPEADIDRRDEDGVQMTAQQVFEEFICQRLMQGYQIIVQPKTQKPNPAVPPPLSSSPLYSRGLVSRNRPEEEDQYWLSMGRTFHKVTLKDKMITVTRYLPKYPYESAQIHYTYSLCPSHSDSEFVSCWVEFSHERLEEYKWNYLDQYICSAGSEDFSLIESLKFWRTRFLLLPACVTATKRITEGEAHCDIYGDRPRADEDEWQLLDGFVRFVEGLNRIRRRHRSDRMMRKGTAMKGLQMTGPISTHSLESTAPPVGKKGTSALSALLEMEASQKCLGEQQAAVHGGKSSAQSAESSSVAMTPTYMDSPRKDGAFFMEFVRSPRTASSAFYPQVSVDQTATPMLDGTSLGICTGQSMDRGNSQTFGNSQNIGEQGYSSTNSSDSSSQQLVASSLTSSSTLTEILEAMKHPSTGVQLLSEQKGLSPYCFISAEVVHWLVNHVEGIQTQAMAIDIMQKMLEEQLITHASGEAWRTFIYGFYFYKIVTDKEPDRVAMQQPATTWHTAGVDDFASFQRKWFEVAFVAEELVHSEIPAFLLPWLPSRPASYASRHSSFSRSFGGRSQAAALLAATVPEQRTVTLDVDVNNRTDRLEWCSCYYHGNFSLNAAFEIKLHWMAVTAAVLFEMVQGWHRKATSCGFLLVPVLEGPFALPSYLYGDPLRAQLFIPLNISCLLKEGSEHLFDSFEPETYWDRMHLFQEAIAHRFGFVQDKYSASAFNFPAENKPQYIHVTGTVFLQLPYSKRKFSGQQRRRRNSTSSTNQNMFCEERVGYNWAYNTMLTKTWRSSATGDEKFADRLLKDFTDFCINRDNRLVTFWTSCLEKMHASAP

These are yes or no findings as the source states them, for the method shown. Binding can be weak; no strength is given. Where a sequence is shown, tags or fusion partners need not be part of it.

For experiment [1], the target named is Flag-Depdc5(R1407A) (human) (UniProt O75140). Kind of experiment: SEC; Flag-Depdc5, HA-Nprl2 and HA-Nprl3 co-expressed in 293-FreeStyle cells; Flag-M2 affinity gel, washed with 300 mM NaCl, eluted with 3x Flag peptide, then HiLoad 16/60 Superdex 200 gel filtration; fractions on a Coomassie-stained gel.
The target of experiment [2] is Flag-Depdc5(R1407D) (human) (UniProt O75140). The experiment is described as above.

B1: HA-Nprl2 (protein, UniProt Q8WTW4 1-380)
chain: MGSGCRIECIFFSEFHPTLGPKITYQVPEDFISRELFDTVQVYIITKPELQNKLITVTAMEKKLIGCPVCIEHKKYSRNALLFNLGFVCDAQAKTCALEPIVKKLAGYLTTLELESSFVSMEESKQKLVPIMTILLEELNASGRCTLPIDESNTIHLKVIEQRPDPPVAQEYDVPVFTKDKEDFFNSQWDLTTQQILPYIDGFRHIQKISAEADVELNLVRIAIQNLLYYGVVTLVSILQYSNVYCPTPKVQDLVDDKSLQEACLSYVTKQGHKRASLRDVFQLYCSLSPGTTVRDLIGRHPQQLQHVDERKLIQFGLMKNLIRRLQKYPVRVTREEQSHPARLYTGCHSYDEICCKTGMSYHELDERLENDPNIIICWK
B1: the binding result in experiment [1] was “binds”.

B2: HA-Nprl3 (protein, UniProt Q12980 1-569)
chain: MRDNTSPISVILVSSGSRGNKLLFRYPFQRSQEHPASQTSKPRSRYAASNTGDHADEQDGDSRFSDVILATILATKSEMCGQKFELKIDNVRFVGHPTLLQHALGQISKTDPSPKREAPTMILFNVVFALRANADPSVINCLHNLSRRIATVLQHEERRCQYLTREAKLILALQDEVSAMADGNEGPQSPFHHILPKCKLARDLKEAYDSLCTSGVVRLHINSWLEVSFCLPHKIHYAASSLIPPEAIERSLKAIRPYHALLLLSDEKSLLGELPIDCSPALVRVIKTTSAVKNLQQLAQDADLALLQVFQLAAHLVYWGKAIIIYPLCENNVYMLSPNASVCLYSPLAEQFSHQFPSHDLPSVLAKFSLPVSLSEFRNPLAPAVQETQLIQMVVWMLQRRLLIQLHTYVCLMASPSEEEPRPREDDVPFTARVGGRSLSTPNALSFGSPTSSDDMTLTSPSMDNSSAELLPSGDSPLNQRMTENLLASLSEHERAAILSVPAAQNPEDLRMFARLLHYFRGRHHLEEIMYNENTRRSQLLMLFDKFRSVLVVTTHEDPVIAVFQALLP
Regarding B2, the binding result in experiment [2] and in experiment [1] was “binds” in each case.
